These are yes or no findings as the source states them, for the method shown. In cells and extracts the contact can be indirect. Some binding calls cover weakened binding; strength is not graded here.
Columns and labels:
[1] = target: Smad2 (human (endogenous in 16HBE)), Q15796; assay: co-IP; total cellular protein extracts of 16HBE cells immunoprecipitated with anti-SMAD2/3 antibody (Co-IP kit, Thermo Fisher), western blot with anti-SMAD4 antibody; cells: control, TGF-β1 (10 ng/mL), or scutellarin (20, 50, 100 μM) before TGF-β1; settings: remark: other sources report otherwise
[2] = target: Smad3 (human (endogenous in 16HBE)), P84022; assay: as above; settings: remark: other sources report otherwise

binding [1]: binds
binding [2]: binds
B1: Smad4, Q13485 1-552 (protein)
chain: MDNMSITNTPTSNDACLSIVHSLMCHRQGGESETFAKRAIESLVKKLKEKKDELDSLITAITTNGAHPSKCVTIQRTLDGRLQVAGRKGFPHVIYARLWRWPDLHKNELKHVKYCQYAFDLKCDSVCVNPYHYERVVSPGIDLSGLTLQSNAPSSMMVKDEYVHDFEGQPSLSTEGHSIQTIQHPPSNRASTETYSTPALLAPSESNATSTANFPNIPVASTSQPASILGGSHSEGLLQIASGPQPGQQQNGFTGQPATYHHNSTTTWTGSRTAPYTPNLPHHQNGHLQHHPPMPPHPGHYWPVHNELAFQPPISNHPAPEYWCSIAYFEMDVQVGETFKVPSSCPIVTVDGYVDPSGGDRFCLGQLSNVHRTEAIERARLHIGKGVQLECKGEGDVWVRCLSDHAVFVQSYYLDREAGRAPGDAVHKIYPSAYIKVFDLRQCHRQMQQQAATAQAAAAAQAAAVAGNIPGPGSVGGIAPAISLSAAAGIGVDDLRRLCILRMSFVKGWGPDYPRQSIKETPCWIEIHLHRALQLLDEVLHTMPIADPQPLD

From PMC11147947
